Measured values: patent US11065203B2, “Liposomal compositions and uses of same” (Technion Research & Development Foundation Limited, priority 2009, dated 2021)

Experiment: Proteomics analysis (trypsin digest, LC-MS/MS) of hMSC ghosts and derived CDLs, conditioned or unconditioned by PC3 medium
Set-up: species or system human
Conditions: LC-MS/MS peak area per protein; for Ratio of expression Cond. CDLs/Cond. Ghosts: CDLs derived from conditioned hMSCs versus conditioned ghosts; for Ratio of expression Cond Ghosts/Ghosts: hMSC ghosts conditioned by PC3 medium versus unconditioned ghosts

Row | Molecule | Ratio of expression Cond. CDLs/Cond. Ghosts | Ratio of expression Cond Ghosts/Ghosts
1 | Q8TCJ2 (protein, UniProt Q8TCJ2 1-826, looked up, full-length) MAEPSAPESKHKSSLNSSPWSGLMALGNSRHGHHGPGAQCAHKAAGGAAPPKPAPAGLSGGLSQPAGWQSLLSFTILFLAWLAGFSSRLFAVIRFESIIHEFDPWFNYRSTHHLASHGFYEFLNWFDERAWYPLGRIVGGTVYPGLMITAGLIHWILNTLNITVHIRDVCVFLAPTFSGLTSISTFLLTRELWNQGAGLLAACFIAIVPGYISRSVAGSFDNEGIAIFALQFTYYLWVKSVKTGSVFWTMCCCLSYFYMVSAWGGYVFIINLIPLHVFVLLLMQRYSKRVYIAYSTFYIVGLILSMQIPFVGFQPIRTSEHMAAAGVFALLQAYAFLQYLRDRLTKQEFQTLFFLGVSLAAGAVFLSVIYLTYTGYIAPWSGRFYSLWDTGYAKIHIPIIASVSEHQPTTWVSFFFDLHILVCTFPAGLWFCIKNINDERVFVALYAISAVYFAGVMVRLMLTLTPVVCMLSAIAFSNVFEHYLGDDMKRENPPVEDSSDEDDKRNQGNLYDKAGKVRKHATEQEKTEEGLGPNIKSIVTMLMLMLLMMFAVHCTWVTSNAYSSPSVVLASYNHDGTRNILDDFREAYFWLRQNTDEHARVMSWWDYGYQIAGMANRTTLVDNNTWNNSHIALVGKAMSSNETAAYKIMRTLDVDYVLVIFGGVIGYSGDDINKFLWMVRIAEGEHPKDIRESDYFTPQGEFRVDKAGSPTLLNCLMYKMSYYRFGEMQLDFRTPPGFDRTRNAEIGNKDIKFKHLEEAFTSEHWLVRIYKVKAPDNRETLDHKPRVTNIFPKQKYLSKKTTKRKRGYIKNKLVFKKGKKISKKTV | 1% | 155%
2 | P21964 (protein, UniProt P21964 1-271, looked up, full-length) MPEAPPLLLAAVLLGLVLLVVLLLLLRHWGWGLCLIGWNEFILQPIHNLLMGDTKEQRILNHVLQHAEPGNAQSVLEAIDTYCEQKEWAMNVGDKKGKIVDAVIQEHQPSVLLELGAYCGYSAVRMARLLSPGARLITIEINPDCAAITQRMVDFAGVKDKVTLVVGASQDIIPQLKKKYDVDTLDMVFLDHWKDRYLPDTLLLEECGLLRKGTVLLADNVICPGAPDFLAHVRGSSCFECTHYQSFLEYREVVDGLEKAIYKGPGSEAGP | 0% | 148%
3 | O43852 (protein, UniProt O43852 1-315, looked up, full-length) MDLRQFLMCLSLCTAFALSKPTEKKDRVHHEPQLSDKVHNDAQSFDYDHDAFLGAEEAKTFDQLTPEESKERLGKIVSKIDGDKDGFVTVDELKDWIKFAQKRWIYEDVERQWKGHDLNEDGLVSWEEYKNATYGYVLDDPDPDDGFNYKQMMVRDERRFKMADKDGDLIATKEEFTAFLHPEEYDYMKDIVVQETMEDIDKNADGFIDLEEYIGDMYSHDGNTDEPEWVKTEREQFVEFRDKNRDGKMDKEETKDWILPSDYDHAEAEARHLVYESDQNKDGKLTKEEIVDKYDLFVGSQATDFGEALVRHDEF | 2% | 143%
4 | O95782 (protein, UniProt O95782 1-977, looked up, full-length) MPAVSKGDGMRGLAVFISDIRNCKSKEAEIKRINKELANIRSKFKGDKALDGYSKKKYVCKLLFIFLLGHDIDFGHMEAVNLLSSNKYTEKQIGYLFISVLVNSNSELIRLINNAIKNDLASRNPTFMCLALHCIANVGSREMGEAFAADIPRILVAGDSMDSVKQSAALCLLRLYKASPDLVPMGEWTARVVHLLNDQHMGVVTAAVSLITCLCKKNPDDFKTCVSLAVSRLSRIVSSASTDLQDYTYYFVPAPWLSVKLLRLLQCYPPPEDAAVKGRLVECLETVLNKAQEPPKSKKVQHSNAKNAILFETISLIIHYDSEPNLLVRACNQLGQFLQHRETNLRYLALESMCTLASSEFSHEAVKTHIDTVINALKTERDVSVRQRAADLLYAMCDRSNAKQIVSEMLRYLETADYAIREEIVLKVAILAEKYAVDYSWYVDTILNLIRIAGDYVSEEVWYRVLQIVTNRDDVQGYAAKTVFEALQAPACHENMVKVGGYILGEFGNLIAGDPRSSPPVQFSLLHSKFHLCSVATRALLLSTYIKFINLFPETKATIQGVLRAGSQLRNADVELQQRAVEYLTLSSVASTDVLATVLEEMPPFPERESSILAKLKRKKGPGAGSALDDGRRDPSSNDINGGMEPTPSTVSTPSPSADLLGLRAAPPPAAPPASAGAGNLLVDVFDGPAAQPSLGPTPEEAFLSELEPPAPESPMALLADPAPAADPGPEDIGPPIPEADELLNKFVCKNNGVLFENQLLQIGVKSEFRQNLGRMYLFYGNKTSVQFQNFSPTVVHPGDLQTQLAVQTKRVAAQVDGGAQVQQVLNIECLRDFLTPPLLSVRFRYGGAPQALTLKLPVTINKFFQPTEMAAQDFFQRWKQLSLPQQEAQKIFKANHPMDAEVTKAKLLGFGSALLDNVDPNPENFVGAGIIQTKALQVGCLLRLEPNAQAQMYRLTLRTSKEPVSRHLCELLAQQF | 5% | 142%
5 | P50416 (protein, UniProt P50416 1-773, looked up, full-length) MAEAHQAVAFQFTVTPDGIDLRLSHEALRQIYLSGLHSWKKKFIRFKNGIITGVYPASPSSWLIVVVGVMTTMYAKIDPSLGIIAKINRTLETANCMSSQTKNVVSGVLFGTGLWVALIVTMRYSLKVLLSYHGWMFTEHGKMSRATKIWMGMVKIFSGRKPMLYSFQTSLPRLPVPAVKDTVNRYLQSVRPLMKEEDFKRMTALAQDFAVGLGPRLQWYLKLKSWWATNYVSDWWEEYIYLRGRGPLMVNSNYYAMDLLYILPTHIQAARAGNAIHAILLYRRKLDREEIKPIRLLGSTIPLCSAQWERMFNTSRIPGEETDTIQHMRDSKHIVVYHRGRYFKVWLYHDGRLLKPREMEQQMQRILDNTSEPQPGEARLAALTAGDRVPWARCRQAYFGRGKNKQSLDAVEKAAFFVTLDETEEGYRSEDPDTSMDSYAKSLLHGRCYDRWFDKSFTFVVFKNGKMGLNAEHSWADAPIVAHLWEYVMSIDSLQLGYAEDGHCKGDINPNIPYPTRLQWDIPGECQEVIETSLNTANLLANDVDFHSFPFVAFGKGIIKKCRTSPDAFVQLALQLAHYKDMGKFCLTYEASMTRLFREGRTETVRSCTTESCDFVRAMVDPAQTVEQRLKLFKLASEKHQHMYRLAMTGSGIDRHLFCLYVVSKYLAVESPFLKEVLSEPWRLSTSQTPQQQVELFDLENNPEYVSSGGGFGPVADDGYGVSYILVGENLINFHISSKFSCPETDSHRFGRHLKEAMTDIITLFGLSSNSKK | 2% | 142%
6 | P46977 (protein, UniProt P46977 1-705, looked up, full-length) MTKFGFLRLSYEKQDTLLKLLILSMAAVLSFSTRLFAVLRFESVIHEFDPYFNYRTTRFLAEEGFYKFHNWFDDRAWYPLGRIIGGTIYPGLMITSAAIYHVLHFFHITIDIRNVCVFLAPLFSSFTTIVTYHLTKELKDAGAGLLAAAMIAVVPGYISRSVAGSYDNEGIAIFCMLLTYYMWIKAVKTGSICWAAKCALAYFYMVSSWGGYVFLINLIPLHVLVLMLTGRFSHRIYVAYCTVYCLGTILSMQISFVGFQPVLSSEHMAAFGVFGLCQIHAFVDYLRSKLNPQQFEVLFRSVISLVGFVLLTVGALLMLTGKISPWTGRFYSLLDPSYAKNNIPIIASVSEHQPTTWSSYYFDLQLLVFMFPVGLYYCFSNLSDARIFIIMYGVTSMYFSAVMVRLMLVLAPVMCILSGIGVSQVLSTYMKNLDISRPDKKSKKQQDSTYPIKNEVASGMILVMAFFLITYTFHSTWVTSEAYSSPSIVLSARGGDGSRIIFDDFREAYYWLRHNTPEDAKVMSWWDYGYQITAMANRTILVDNNTWNNTHISRVGQAMASTEEKAYEIMRELDVSYVLVIFGGLTGYSSDDINKFLWMVRIGGSTDTGKHIKENDYYTPTGEFRVDREGSPVLLNCLMYKMCYYRFGQVYTEAKRPPGFDRVRNAEIGNKDFELDVLEEAYTTEHWLVRIYKVKDLDNRGLSRT | 3% | 138%
